US10239884B2, “Coelenterazine compounds and uses thereof” (KEIO UNIVERSITY, priority 2017, dated 2019)

System: ALuc34
Test: Bioluminescence spectrum, ALuc system
Assay type: biochemical
Conditions: ATTO LumiFL

For `Oc1ccc(Cc2nc3c(Cc4ccccc4)nc(-c4ccc(O)cc4)cn3c2O)cc1` [Native-CTZ, coelenterazine], the “ALuc34 maximum luminescence intensity (nm)” value was 500 nm.

In the case of `[N-]=[N+]=NCCOc1ccc(-c2cn3c(=O)c(Cc4ccc(O)cc4)nc-3c(Cc3ccccc3)[nH]2)cc1` [Example 6-Al2N3-CTZ], the “ALuc34 maximum luminescence intensity (nm)” value is reported as 503 nm.
